Consider one substance from PMC5006017.

The chains behind the UniProt entries cited, without tags or fusion partners.
UniProt P03101: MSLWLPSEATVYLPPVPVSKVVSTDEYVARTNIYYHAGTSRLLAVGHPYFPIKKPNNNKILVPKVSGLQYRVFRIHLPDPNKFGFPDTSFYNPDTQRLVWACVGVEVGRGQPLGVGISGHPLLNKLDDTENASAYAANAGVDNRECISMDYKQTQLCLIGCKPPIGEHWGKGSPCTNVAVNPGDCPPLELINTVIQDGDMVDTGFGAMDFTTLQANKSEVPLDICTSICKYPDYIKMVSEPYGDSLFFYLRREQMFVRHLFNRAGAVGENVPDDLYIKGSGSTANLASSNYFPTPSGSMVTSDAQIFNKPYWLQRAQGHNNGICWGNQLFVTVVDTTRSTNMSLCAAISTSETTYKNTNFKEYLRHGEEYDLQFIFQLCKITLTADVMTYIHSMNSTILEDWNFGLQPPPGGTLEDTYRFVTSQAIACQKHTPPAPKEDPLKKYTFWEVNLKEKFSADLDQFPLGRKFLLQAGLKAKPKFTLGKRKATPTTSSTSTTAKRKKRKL
UniProt P08962: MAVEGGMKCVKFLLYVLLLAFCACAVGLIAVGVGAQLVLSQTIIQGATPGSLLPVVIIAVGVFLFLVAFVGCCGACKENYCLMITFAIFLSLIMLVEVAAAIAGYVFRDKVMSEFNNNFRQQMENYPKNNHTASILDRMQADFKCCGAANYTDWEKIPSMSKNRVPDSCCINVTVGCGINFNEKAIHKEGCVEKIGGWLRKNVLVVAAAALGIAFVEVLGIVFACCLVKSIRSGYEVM

These are yes or no findings as the source states them, for the method shown. Binding seen in cells or lysates may run through a third protein. Some results given as binding are weak or reduced against the parent protein; the word gives no strength.

The assay addresses HPV16 major capsid protein L1 (in HPV16 pseudovirions) (human papillomavirus type 16) (UniProt P03101). As to the kind of experiment: co-IP; HeLa cells infected with HPV16 PsV for five hours, lysed in 1% Chaps/Hepes buffer; L1 pAb K75 on anti-rabbit Dynabeads, overnight at 4 °C; Western blot for L1 and CD63. (In general: In western blotting, separated proteins are transferred to a membrane and probed.)

Consider “tetraspanin CD63 (endogenous, HeLa) (from UniProt P08962 1-238)”, for which the binding entry was “binds”.
